Results are given in words; binding and its absence hold for the method and conditions named. Some entries that bind do so weakly or less than the wild type.
Assays:
[1] = biological target: T1, p101 regulatory subunit of PI3Kγ, porcine (S. scrofa) (porcine (S. scrofa)) (UniProt O02696); assay: SEC
T1 sequence: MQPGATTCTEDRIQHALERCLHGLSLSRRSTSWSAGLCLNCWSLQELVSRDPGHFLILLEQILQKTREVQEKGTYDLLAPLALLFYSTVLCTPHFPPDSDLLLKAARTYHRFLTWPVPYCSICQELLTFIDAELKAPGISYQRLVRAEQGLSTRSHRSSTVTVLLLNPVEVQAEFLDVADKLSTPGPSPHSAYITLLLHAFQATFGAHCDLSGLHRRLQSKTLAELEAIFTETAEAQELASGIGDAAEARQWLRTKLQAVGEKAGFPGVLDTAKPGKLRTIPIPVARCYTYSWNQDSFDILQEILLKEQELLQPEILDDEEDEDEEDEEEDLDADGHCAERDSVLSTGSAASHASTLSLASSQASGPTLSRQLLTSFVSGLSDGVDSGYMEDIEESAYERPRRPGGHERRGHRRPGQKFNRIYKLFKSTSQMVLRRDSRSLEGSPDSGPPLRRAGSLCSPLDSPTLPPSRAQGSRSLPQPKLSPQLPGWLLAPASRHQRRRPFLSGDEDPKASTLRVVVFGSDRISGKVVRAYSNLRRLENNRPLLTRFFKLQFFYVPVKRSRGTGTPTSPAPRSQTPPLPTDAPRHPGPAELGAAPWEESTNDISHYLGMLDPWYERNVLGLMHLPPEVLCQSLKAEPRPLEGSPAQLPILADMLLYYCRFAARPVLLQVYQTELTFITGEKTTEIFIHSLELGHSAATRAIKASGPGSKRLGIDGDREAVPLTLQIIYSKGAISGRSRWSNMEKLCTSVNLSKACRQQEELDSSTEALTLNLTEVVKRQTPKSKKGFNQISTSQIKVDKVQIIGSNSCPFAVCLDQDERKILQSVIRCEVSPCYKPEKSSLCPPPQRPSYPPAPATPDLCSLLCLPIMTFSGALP

Protein sequences, listed by entry. Tags and fused reporters are not part of them. Lines headed by an entry give the natural chain unless they say otherwise; changes in a name come on top.
UniProt P48736, whole entry: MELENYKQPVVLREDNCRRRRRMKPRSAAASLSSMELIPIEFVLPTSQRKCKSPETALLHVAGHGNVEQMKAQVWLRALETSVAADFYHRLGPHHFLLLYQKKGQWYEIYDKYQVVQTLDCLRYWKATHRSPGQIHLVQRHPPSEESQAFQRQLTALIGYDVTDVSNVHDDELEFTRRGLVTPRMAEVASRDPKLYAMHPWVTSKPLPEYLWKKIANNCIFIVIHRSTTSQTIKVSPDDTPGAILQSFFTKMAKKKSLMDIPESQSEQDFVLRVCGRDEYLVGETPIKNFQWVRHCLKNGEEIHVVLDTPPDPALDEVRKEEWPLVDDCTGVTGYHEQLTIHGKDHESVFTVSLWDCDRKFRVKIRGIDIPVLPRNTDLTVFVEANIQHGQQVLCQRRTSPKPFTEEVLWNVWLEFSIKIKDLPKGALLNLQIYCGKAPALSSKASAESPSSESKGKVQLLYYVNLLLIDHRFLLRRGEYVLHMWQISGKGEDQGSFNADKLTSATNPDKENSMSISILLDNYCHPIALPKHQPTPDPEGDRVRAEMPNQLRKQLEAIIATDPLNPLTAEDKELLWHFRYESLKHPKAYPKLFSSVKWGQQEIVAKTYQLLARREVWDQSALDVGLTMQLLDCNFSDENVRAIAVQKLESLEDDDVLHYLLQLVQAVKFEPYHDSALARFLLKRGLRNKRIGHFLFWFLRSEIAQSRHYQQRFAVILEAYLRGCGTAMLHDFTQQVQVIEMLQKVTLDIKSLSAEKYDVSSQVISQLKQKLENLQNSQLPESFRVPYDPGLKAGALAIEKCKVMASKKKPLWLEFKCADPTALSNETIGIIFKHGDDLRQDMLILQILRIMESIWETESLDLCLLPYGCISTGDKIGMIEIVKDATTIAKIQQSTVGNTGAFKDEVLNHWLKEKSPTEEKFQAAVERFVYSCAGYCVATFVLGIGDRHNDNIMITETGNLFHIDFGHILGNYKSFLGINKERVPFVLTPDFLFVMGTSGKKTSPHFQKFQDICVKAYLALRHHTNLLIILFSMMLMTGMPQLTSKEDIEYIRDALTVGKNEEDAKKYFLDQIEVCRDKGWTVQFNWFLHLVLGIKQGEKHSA

[2] = biological target: T1, p101 regulatory subunit of PI3Kγ, porcine (S. scrofa) (porcine (S. scrofa)); assay: cryo-EM structure
[3] = biological target: T1, p101 regulatory subunit of PI3Kγ, porcine (S. scrofa) (porcine (S. scrofa)); assay: HDX-MS
[4] = biological target: T2, p84 regulatory subunit of PI3Kγ, mouse (mouse) (UniProt Q3U6Q4); assay: HDX-MS
T2 sequence: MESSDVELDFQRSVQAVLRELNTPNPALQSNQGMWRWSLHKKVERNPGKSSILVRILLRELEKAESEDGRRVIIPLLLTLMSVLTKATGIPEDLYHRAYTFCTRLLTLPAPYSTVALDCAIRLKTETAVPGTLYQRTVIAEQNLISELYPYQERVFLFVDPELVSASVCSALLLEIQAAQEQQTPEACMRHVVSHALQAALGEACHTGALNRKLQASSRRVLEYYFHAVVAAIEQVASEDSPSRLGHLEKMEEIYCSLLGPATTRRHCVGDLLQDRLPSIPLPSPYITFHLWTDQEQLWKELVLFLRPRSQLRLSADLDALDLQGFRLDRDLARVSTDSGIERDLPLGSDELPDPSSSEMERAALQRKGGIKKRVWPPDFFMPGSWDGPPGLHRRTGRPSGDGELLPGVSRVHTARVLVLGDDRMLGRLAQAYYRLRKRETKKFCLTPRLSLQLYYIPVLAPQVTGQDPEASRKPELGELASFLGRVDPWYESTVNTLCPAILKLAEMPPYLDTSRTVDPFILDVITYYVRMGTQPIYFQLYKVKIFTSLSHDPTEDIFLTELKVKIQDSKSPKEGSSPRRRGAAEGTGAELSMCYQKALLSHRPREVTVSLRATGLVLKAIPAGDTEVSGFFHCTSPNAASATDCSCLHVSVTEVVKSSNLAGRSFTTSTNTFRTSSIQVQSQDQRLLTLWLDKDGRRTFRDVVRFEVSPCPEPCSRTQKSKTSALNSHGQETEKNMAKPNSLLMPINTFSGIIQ

[5] = biological target: T2, p84 regulatory subunit of PI3Kγ, mouse (mouse); assay: SEC

binding [1] | binding [2] | binding [3] | binding [4] | binding [5] | Substance
binds |  |  |  |  | p110γ D369R (C2 domain, GBD-C2 interface mutant) (from UniProt P48736 1-1102) (enzyme)
binds |  |  |  |  | p110γ R472C (ABD interface mutant) (from UniProt P48736 1-1102) (enzyme)
binds | binds | binds | binds | binds | p110γ catalytic subunit of PI3Kγ, full length human (from UniProt P48736 1-1102) (enzyme)
binds |  |  |  |  | p110γ E347K (p101 interface mutant) (from UniProt P48736 1-1102) (enzyme)

— paper doi:10.1101/2021.06.01.446612
